Measured data: PubChem BioAssay AID1259308 (NCATS, 2017)

Screen: 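Knock-downs that increase output of a recombinant reporter protein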 (primary screen)
Cells: human HEK293 embryonic kidney cells stably expressing firefly luciferase (HEK-CMV-Luc2-Hygro)
Knock-down reagent: single siRNA against human genes, 0.8 pmol siRNA per well
Duration: 72 h
Detection: 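Luciferase light (ONE-Glo) measured on one replicate plate set and viability (CellTiter-Glo) on the other, scaled to a negative control siRNA, with robust z-scores and luciferase per cell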
Direction: total luciferase, z-score and total luciferase, % of control: higher = more reporter protein produced; luciferase per cell, z-score: higher = more reporter output per viable cell; viable cells, % of control: higher = more viable cells
Hit rule: 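An siRNA counts as active if its total luciferase robust z-score exceeds 3; genes with two or more such siRNAs out of three were retested with fresh siRNAs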
Calls: active = raised luciferase; inactive = no rise
Shown is one part, drawn at random, of about 59,000 reagents tested. In the full data, about 1,510 (2.6%) were called active. 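Calls use total luciferase alone and ignore viability, so some active siRNAs may act by altering cell number.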 A number with no mark means an inactive call. The numbers tell different reagents against one gene apart. Reagent sequences are not shown.

no.	gene symbol	reagent	total luciferase, z-score	total luciferase, % of control	luciferase per cell, z-score	viable cells, % of control
1	ENOX1	1	0.371	89.3	0.333	91.4
2	ENOX1	2	-1.35	55.1	-1.58	93.3
3	ENOX1	3	-0.299	75.9	-0.0921	86.9
4	PPP1R3C	1	-0.331	75.3	1.25	60.5
5	PPP1R3C	2	-0.0882	80.1	-0.724	108
6	PPP1R3C	3	-0.975	62.5	-1.51	104
7	AMD1	1	-0.284	76.2	0.839	68.3
8	AMD1	2	-1.31	55.8	-0.582	72.7
9	AMD1	3	-1.91	43.9	-2.07	84.5
10	HM13	1	-0.368	74.6	-0.841	104
11	HM13	2	-0.258	76.7	-1.06	113
12	HM13	3	0.0541	83	-0.675	111
13	C19orf67	1	0.0314	82.5	0.604	78.6
14	C19orf67	2	2.36	129	2.95	66.1
15	C19orf67	3	-0.841	65.2	-0.322	79.2
16	ANKS3	1	-1.63	49.4	-0.427	61.8
17	ANKS3	2	-1.82	45.7	-2.39	95.9
18	ANKS3	3	-0.782	66.3	-1.27	104
19	ABCA1	1	-0.18	78.3	-0.66	104
20	ABCA1	2	-1.02	61.6	-1.36	98.4
21	ABCA1	3	0.409	90	0.727	83.1
22	MRE11	1	0.366	89.2	-0.0893	102
23	MRE11	2	-0.781	66.4	-1.36	106
24	MRE11	3	-0.656	68.8	-0.611	90.4
25	ALDH3A1	1	0.233	86.5	0.00594	96.5
26	ALDH3A1	2	0.424	90.3	0.162	96.7
27	ALDH3A1	3	1.89	119	1.6	87.6
28	OIP5-AS1	1	0.919	100	1.11	83.5
29	OIP5-AS1	2	2.76	137	2.7	75
30	OIP5-AS1	3	-0.0696	80.5	-0.153	93.7

The list goes on, starting with the last 3 of the part before.
no.	gene symbol	reagent	total luciferase, z-score	total luciferase, % of control	luciferase per cell, z-score	viable cells, % of control
28	OIP5-AS1	1	0.919	100	1.11	83.5
29	OIP5-AS1	2	2.76	137	2.7	75
30	OIP5-AS1	3	-0.0696	80.5	-0.153	93.7
31	MROH2A	1	-0.113	79.6	-0.192	93.6
32	MROH2A	2	-0.0233	81.4	-0.188	95.6
33	MROH2A	3	-1.35	55.1	-0.928	78.6
34	C1QC	1	0.593	93.7	-0.0869	107
35	C1QC	2	-1.35	55	-1.64	94.8
36	C1QC	3	5 (active)	181	2.5	105
37	XKRY	1	0.196	85.8	-0.226	102
38	XKRY	2	0.325	88.4	0.485	86.9
39	XKRY	3	-0.0713	80.5	-0.336	98.2
40	KAAG1	1	-0.173	78.4	0.16	84
41	KAAG1	2	0.699	95.8	1.06	81
42	KAAG1	3	1.25	107	1.31	84.6
43	NRG4	1	0.151	84.9	-0.287	102
44	NRG4	2	-1.87	44.7	-0.58	58.2
45	NRG4	3	-0.15	78.9	-0.685	106
46	ACER3	1	0.119	84.3	0.134	90.9
47	ACER3	2	-1.35	55.1	-0.547	71.1
48	ACER3	3	0.721	96.2	1.8	67
49	CFC1	1	-0.988	62.2	-1.46	102
50	CFC1	2	0.222	86.3	1.29	68.6
51	CFC1	3	-1.74	47.4	-1.48	78.2
52	RUSC1	1	2.41	130	2.29	79.4
53	RUSC1	2	0.692	95.7	0.543	92.7
54	RUSC1	3	0.613	94.1	-0.000744	105
55	GDF11	1	-0.586	70.2	-1.3	111
56	GDF11	2	-0.165	78.6	0.398	79.1
57	GDF11	3	1.1	104	-0.158	121
